Data published in doi:10.1101/266908.

Protein sequences, listed by entry. Tags and fused reporters are not part of them.
UniProt P03372: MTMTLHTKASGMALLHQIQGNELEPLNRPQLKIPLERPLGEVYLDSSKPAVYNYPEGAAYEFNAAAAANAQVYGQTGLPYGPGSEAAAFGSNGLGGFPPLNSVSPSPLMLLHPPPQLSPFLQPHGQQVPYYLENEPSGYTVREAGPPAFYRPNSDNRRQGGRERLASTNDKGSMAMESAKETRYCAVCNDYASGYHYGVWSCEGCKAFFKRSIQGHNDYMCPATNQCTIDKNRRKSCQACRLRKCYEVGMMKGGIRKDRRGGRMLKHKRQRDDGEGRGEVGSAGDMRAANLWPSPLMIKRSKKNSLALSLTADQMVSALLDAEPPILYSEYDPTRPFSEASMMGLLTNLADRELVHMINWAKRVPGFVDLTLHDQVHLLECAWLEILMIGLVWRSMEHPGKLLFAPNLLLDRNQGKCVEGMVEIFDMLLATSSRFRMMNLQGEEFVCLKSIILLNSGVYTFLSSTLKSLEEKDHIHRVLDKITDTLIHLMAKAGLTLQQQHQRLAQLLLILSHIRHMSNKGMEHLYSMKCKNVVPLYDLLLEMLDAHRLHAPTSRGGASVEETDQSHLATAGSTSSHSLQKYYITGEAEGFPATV
UniProt P23771: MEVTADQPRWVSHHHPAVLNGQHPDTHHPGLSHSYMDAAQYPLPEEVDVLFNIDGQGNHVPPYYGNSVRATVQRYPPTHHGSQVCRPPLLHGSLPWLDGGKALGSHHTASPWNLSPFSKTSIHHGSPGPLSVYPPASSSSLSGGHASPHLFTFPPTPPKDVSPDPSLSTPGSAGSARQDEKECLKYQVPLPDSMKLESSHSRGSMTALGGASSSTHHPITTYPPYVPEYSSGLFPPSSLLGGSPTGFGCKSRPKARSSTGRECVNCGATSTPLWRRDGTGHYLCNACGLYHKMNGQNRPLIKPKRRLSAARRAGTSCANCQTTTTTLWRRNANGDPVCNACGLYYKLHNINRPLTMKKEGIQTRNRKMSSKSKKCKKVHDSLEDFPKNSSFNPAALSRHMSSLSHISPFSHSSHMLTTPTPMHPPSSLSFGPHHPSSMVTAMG
UniProt Q13547: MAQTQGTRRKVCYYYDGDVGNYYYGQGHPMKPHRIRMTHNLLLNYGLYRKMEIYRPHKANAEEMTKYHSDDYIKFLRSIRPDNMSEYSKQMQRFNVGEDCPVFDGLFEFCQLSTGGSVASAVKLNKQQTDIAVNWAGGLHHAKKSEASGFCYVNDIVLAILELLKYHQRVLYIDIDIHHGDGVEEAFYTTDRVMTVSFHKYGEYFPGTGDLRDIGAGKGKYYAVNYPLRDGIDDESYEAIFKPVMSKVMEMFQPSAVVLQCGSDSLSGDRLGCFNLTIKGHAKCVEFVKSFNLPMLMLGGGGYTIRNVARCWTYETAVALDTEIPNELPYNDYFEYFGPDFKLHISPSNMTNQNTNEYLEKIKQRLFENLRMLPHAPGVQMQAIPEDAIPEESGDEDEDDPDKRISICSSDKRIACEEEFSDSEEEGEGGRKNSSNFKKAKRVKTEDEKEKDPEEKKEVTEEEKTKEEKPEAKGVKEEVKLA
UniProt P10276: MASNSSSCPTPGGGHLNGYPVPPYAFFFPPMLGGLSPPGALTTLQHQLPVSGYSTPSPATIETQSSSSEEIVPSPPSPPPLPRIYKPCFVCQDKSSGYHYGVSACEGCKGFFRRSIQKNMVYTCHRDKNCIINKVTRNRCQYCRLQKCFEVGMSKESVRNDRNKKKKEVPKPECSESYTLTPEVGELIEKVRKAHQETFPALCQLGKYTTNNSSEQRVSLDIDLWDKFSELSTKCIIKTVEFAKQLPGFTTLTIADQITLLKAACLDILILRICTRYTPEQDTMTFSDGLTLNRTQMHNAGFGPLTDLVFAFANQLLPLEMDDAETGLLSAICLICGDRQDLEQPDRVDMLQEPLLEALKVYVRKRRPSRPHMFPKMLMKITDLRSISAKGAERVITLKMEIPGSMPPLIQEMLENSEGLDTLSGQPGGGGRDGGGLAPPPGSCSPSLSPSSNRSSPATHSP

T1: Grainyhead Like Transcription Factor 2 (human (endogenous in MCF7)) (UniProt Q6ISB3)
T1 sequence: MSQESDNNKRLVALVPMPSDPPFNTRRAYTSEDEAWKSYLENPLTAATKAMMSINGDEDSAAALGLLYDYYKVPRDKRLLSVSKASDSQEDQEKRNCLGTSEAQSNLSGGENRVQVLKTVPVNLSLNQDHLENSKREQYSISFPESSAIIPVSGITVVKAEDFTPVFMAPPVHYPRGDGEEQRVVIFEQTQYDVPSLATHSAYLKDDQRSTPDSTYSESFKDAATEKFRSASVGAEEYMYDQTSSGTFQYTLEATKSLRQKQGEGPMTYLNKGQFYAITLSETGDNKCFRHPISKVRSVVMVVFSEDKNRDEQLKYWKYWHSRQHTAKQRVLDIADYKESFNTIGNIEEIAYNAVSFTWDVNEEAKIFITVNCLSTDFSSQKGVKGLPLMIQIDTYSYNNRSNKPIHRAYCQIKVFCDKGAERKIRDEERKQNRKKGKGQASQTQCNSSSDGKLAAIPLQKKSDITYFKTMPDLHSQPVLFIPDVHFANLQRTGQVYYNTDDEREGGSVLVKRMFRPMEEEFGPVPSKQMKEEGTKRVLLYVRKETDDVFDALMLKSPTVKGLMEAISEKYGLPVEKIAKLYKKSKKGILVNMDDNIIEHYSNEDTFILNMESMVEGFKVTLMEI


What was measured:
Assay in all cases: affinity purification with mass spectrometry
[1] = target: T1, Grainyhead Like Transcription Factor 2 (human (endogenous in MCF7))
[2] = target: Estrogen Receptor-alpha (human (endogenous in MCF7)) (UniProt P03372)
[3] = target: Estrogen Receptor-alpha (human (endogenous in MCF7)) (UniProt P03372); remark: listed apart in the source
[4] = target: T1, Grainyhead Like Transcription Factor 2 (human (endogenous in MCF7)); remark: listed apart in the source

Row | binding [1] | binding [2] | Molecule | other results
1 | binds |  | Estrogen Receptor-alpha (from UniProt P03372 1-595) | 
2 |  | binds | GATA3 (from UniProt P23771 1-443) | 
3 | binds |  | HDAC1 (from UniProt Q13547 1-482) | 
4 |  | binds | RARA (from UniProt P10276 1-462) | 
5 |  |  | Grainyhead Like Transcription Factor 2 (protein, UniProt Q6ISB3 1-625) MSQESDNNKRLVALVPMPSDPPFNTRRAYTSEDEAWKSYLENPLTAATKAMMSINGDEDSAAALGLLYDYYKVPRDKRLLSVSKASDSQEDQEKRNCLGTSEAQSNLSGGENRVQVLKTVPVNLSLNQDHLENSKREQYSISFPESSAIIPVSGITVVKAEDFTPVFMAPPVHYPRGDGEEQRVVIFEQTQYDVPSLATHSAYLKDDQRSTPDSTYSESFKDAATEKFRSASVGAEEYMYDQTSSGTFQYTLEATKSLRQKQGEGPMTYLNKGQFYAITLSETGDNKCFRHPISKVRSVVMVVFSEDKNRDEQLKYWKYWHSRQHTAKQRVLDIADYKESFNTIGNIEEIAYNAVSFTWDVNEEAKIFITVNCLSTDFSSQKGVKGLPLMIQIDTYSYNNRSNKPIHRAYCQIKVFCDKGAERKIRDEERKQNRKKGKGQASQTQCNSSSDGKLAAIPLQKKSDITYFKTMPDLHSQPVLFIPDVHFANLQRTGQVYYNTDDEREGGSVLVKRMFRPMEEEFGPVPSKQMKEEGTKRVLLYVRKETDDVFDALMLKSPTVKGLMEAISEKYGLPVEKIAKLYKKSKKGILVNMDDNIIEHYSNEDTFILNMESMVEGFKVTLMEI | binding [3]: binds
6 |  |  | TIF1A (protein, UniProt O15164 1-1050) MEVAVEKAVAAAAAASAAASGGPSAAPSGENEAESRQGPDSERGGEAARLNLLDTCAVCHQNIQSRAPKLLPCLHSFCQRCLPAPQRYLMLPAPMLGSAETPPPVPAPGSPVSGSSPFATQVGVIRCPVCSQECAERHIIDNFFVKDTTEVPSSTVEKSNQVCTSCEDNAEANGFCVECVEWLCKTCIRAHQRVKFTKDHTVRQKEEVSPEAVGVTSQRPVFCPFHKKEQLKLYCETCDKLTCRDCQLLEHKEHRYQFIEEAFQNQKVIIDTLITKLMEKTKYIKFTGNQIQNRIIEVNQNQKQVEQDIKVAIFTLMVEINKKGKALLHQLESLAKDHRMKLMQQQQEVAGLSKQLEHVMHFSKWAVSSGSSTALLYSKRLITYRLRHLLRARCDASPVTNNTIQFHCDPSFWAQNIINLGSLVIEDKESQPQMPKQNPVVEQNSQPPSGLSSNQLSKFPTQISLAQLRLQHMQQQVMAQRQQVQRRPAPVGLPNPRMQGPIQQPSISHQQPPPRLINFQNHSPKPNGPVLPPHPQQLRYPPNQNIPRQAIKPNPLQMAFLAQQAIKQWQISSGQGTPSTTNSTSSTPSSPTITSAAGYDGKAFGSPMIDLSSPVGGSYNLPSLPDIDCSSTIMLDNIVRKDTNIDHGQPRPPSNRTVQSPNSSVPSPGLAGPVTMTSVHPPIRSPSASSVGSRGSSGSSSKPAGADSTHKVPVVMLEPIRIKQENSGPPENYDFPVVIVKQESDEESRPQNANYPRSILTSLLLNSSQSSTSEETVLRSDAPDSTGDQPGLHQDNSSNGKSEWLDPSQKSPLHVGETRKEDDPNEDWCAVCQNGGELLCCEKCPKVFHLSCHVPTLTNFPSGEWICTFCRDLSKPEVEYDCDAPSHNSEKKKTEGLVKLTPIDKRKCERLLLFLYCHEMSLAFQDPVPLTVPDYYKIIKNPMDLSTIKKRLQEDYSMYSKPEDFVADFRLIFQNCAEFNEPDSEVANAGIKLENYFEELLKNLYPEKRFPKPEFRNESEDNKFSDDSDDDFVQPRKKRLKSIEERQLLK | binding [4]: binds

Read-outs that look alike come from different tables or passages of the source. These are yes or no findings as the source states them, for the method shown. In cells and extracts the contact can be indirect. Here binding means that the protein was enriched with, or labelled near, the bait; the list need not be complete.
